Source: PubChem BioAssay AID624297 (National Center for Advancing Translational Sciences (NCATS), 2012)
The campaign covered roughly 340,000 compounds. About 6,200 (1.8%) were called active. The inconclusive results got no clear call from the source; some entries with a clear call stand among them for comparison. The call rests on the fitted dose curve; in most records, active means well fitted activation curve with a large enough effect; inconclusive means small, poorly fitted or top-dose-only effect; inactive means no such curve, though single readings can be large or run the other way. A potency beside an inconclusive call is a rough fit, not a confirmed value.

experiment: A quantitative high throughput screen for small molecules that induce DNA re-replication in SW480 colon adenocarcinoma cells.; further: nearly all actives have a fitted effect of over 55% in size; on re-replication activation: % of control where 0% means no effect; conditions: Hoechst DNA content imaging, 48 h; re-replication activation: at 46.1 µM (top of the series) unless noted
Outline: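 Compounds, transferred as 23 nL by pin tool, were incubated with cells for 48 hr; DNA content per nucleus was then quantified by Hoechst staining and fluorescence plate imaging.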
Potency means the concentration at half of the fitted maximal effect.

SMILES | Potency | re-replication activation
COc1ccc(N2CCN(S(=O)(=O)CCNC(=O)COc3cccc(OC)c3)CC2)cc1 | inconclusive: 18.4 µM [activator, single point] | –
COc1cc(/C=C2\CC/C(=C\c3ccc(OCCO)c(OC)c3)C2=O)ccc1OCCO | – | inactive: -1.19%
CC1=CC(C)[C@H](/C=N/n2c(=O)[nH]c3c([nH]c4ccc(C)cc43)c2=O)C(C)C1 (some centres undefined) | inconclusive: 13 µM [activator, single point] | –
CCOc1cc(/C=N/n2cnnc2)cc(Br)c1O | inconclusive: 0.92 µM [activator, full curve, poor fit] | –
Cc1cccc(NC(=O)Cn2cnc(S(=O)(=O)N3CCCC3)c2)c1C | inconclusive: 6.51 µM [activator, partial curve, poor fit] | –
Cc1cc(C)c(S(=O)(=O)NCc2ccc3c(c2)OCO3)cc1C | – | inconclusive: 16.2% [activator]
Cc1nc2ccc(C(=O)N3c4ccccc4CC3C)cc2s1 (centres undefined) | inconclusive: 18.4 µM [activator, single point] | –
CCSC1=C(C#N)C(c2ccc(C)o2)CC(=O)N1 (centres undefined) | inconclusive: 3.66 µM [activator, single point] | –
O=C(OCC(=O)N1CCCc2ccccc21)c1ccccc1OC(F)F | – | inactive: 9.01%
O=[N+]([O-])c1ccc(Oc2ccc(Oc3ccc(C(F)(F)F)cn3)cc2)nc1 | inconclusive: 1.84 µM [activator, partial curve, poor fit] | –
O=C(Nc1ccc(N2C(=O)CCC2=O)cc1Cl)c1cccs1 | – | inactive: -5.33%
Oc1ccccc1/C=N/Nc1nc2ccccc2o1 | inconclusive: 0.82 µM [activator, full curve, poor fit] | –
Cc1ccc(C)c(OCCC(=O)OCC(=O)N2c3ccccc3NC(=O)C2(C)C)c1 | – | inactive: -5.45%
CCOC(=O)C1CCCN(c2c(NCCCN3CCCC(C)C3)c(=O)c2=O)C1 (centres undefined) | inconclusive: 6.51 µM [activator, single point] | –
c1ccc(Cn2ncc3c(N4CCCCC4)ncnc32)cc1 | – | inactive: -4.46%
CC(=O)Nc1ccc(NC2=Nc3ccccc3N3C2=Nc2c(c(C)nn2-c2ccccc2)C3c2ccccc2)cc1 (centres undefined) | inconclusive: 2.51 µM [activator, full curve, poor fit] | –
CC(C)NC(=S)N/N=C1\CCCCC1C1CCCCC1 (centres undefined) | inconclusive: 6.51 µM [activator, full curve] | –
CN(C)CCCn1c(N)c(S(=O)(=O)c2ccccc2)c2nc3ccccc3nc21 | inconclusive: 9.2 µM [activator, partial curve, poor fit] | –
CC(C)CC(=O)NC(=S)Nc1ccc(S(=O)(=O)N2CCN(C)CC2)cc1 | inconclusive: 6.51 µM [activator, single point] | –

Taken from above.
In Potency, `CC(C)NC(=S)N/N=C1\CCCCC1C1CCCCC1` (centres undefined) has inconclusive: 6.51 µM [activator, full curve]
In Potency, `CN(C)CCCn1c(N)c(S(=O)(=O)c2ccccc2)c2nc3ccccc3nc21` has inconclusive: 9.2 µM [activator, partial curve, poor fit]
